These are yes or no findings as the source states them, for the method shown. Some binding calls cover weakened binding; strength is not graded here.

Chains of the proteins cited; added tags and fusions are not shown. Lines headed by an entry give the natural chain unless they say otherwise; changes in a name come on top. Residues count along the entry.
UniProt P21860: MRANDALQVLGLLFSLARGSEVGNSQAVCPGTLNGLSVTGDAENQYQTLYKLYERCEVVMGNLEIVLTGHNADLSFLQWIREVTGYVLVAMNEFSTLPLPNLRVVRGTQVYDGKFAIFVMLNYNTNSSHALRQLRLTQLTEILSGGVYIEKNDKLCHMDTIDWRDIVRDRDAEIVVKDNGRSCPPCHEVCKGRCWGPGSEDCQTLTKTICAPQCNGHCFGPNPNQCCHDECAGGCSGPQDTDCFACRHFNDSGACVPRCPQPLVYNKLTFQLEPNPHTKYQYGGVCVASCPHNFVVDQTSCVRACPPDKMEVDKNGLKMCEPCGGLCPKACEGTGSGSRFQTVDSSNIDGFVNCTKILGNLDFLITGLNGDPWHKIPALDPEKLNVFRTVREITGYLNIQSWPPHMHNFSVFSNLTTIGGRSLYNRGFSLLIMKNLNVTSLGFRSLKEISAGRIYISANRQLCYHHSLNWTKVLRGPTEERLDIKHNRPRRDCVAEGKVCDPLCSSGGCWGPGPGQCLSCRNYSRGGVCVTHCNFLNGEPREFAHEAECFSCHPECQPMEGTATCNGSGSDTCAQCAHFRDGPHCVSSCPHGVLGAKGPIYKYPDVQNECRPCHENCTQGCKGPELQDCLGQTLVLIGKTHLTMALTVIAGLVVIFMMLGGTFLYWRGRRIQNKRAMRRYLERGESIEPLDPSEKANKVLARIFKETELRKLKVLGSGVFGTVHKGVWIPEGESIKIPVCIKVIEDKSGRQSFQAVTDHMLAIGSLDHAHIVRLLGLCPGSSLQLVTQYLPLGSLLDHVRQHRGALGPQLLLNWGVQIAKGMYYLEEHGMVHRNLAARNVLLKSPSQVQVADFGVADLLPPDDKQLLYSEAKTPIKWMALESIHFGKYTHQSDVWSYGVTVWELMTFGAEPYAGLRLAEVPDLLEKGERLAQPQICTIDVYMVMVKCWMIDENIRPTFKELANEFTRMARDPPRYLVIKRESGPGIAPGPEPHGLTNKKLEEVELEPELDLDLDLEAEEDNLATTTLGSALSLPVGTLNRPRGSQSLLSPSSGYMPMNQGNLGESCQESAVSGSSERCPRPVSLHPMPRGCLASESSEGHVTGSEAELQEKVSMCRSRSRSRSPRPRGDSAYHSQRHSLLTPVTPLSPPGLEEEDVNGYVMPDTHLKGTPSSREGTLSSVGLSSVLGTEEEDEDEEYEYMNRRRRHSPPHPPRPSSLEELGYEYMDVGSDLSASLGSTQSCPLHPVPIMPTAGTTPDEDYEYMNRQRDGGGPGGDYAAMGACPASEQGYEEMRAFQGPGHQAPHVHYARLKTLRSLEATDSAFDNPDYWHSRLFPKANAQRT
human HER3: residues 20-1342 of P21860
protein HER3 (human HER3, ELISA of Example 12): residues 20-643 of P21860

Assay [1] addresses protein HER3 (human HER3, ELISA of Example 12) (human) (UniProt P21860). The experiment in a line: ELISA, titration of IgG.
Assay [2] has the same target. Nature of the assay: HER3 ELISA, titration of IgG from 5 to 0.04 per well (Example 12), OD405 [9 B].
For assay [3], the target named is human HER3 (human) (UniProt P21860). The experiment in a line: flow cytometry on CHO cells transiently transfected with human HER3, antibody at 10 µg/ml. Background: A flow cytometer gives signals particle by particle.

B1: humanized A4 (antibody, V domains shown)
VH: QVQLVQSGAEVKKPGASVKVSCKASGYTFTIFWMHWVRQAPGQGLEWMGNIYPGSGGTNYAQKFQGRVTMTRDTSISTAYMELSRLRSDDTVVYYCTRWGTGKDYWGQGTLVTVSS
VL: EIVLTQSPGTLSLSPGERATLSCRASSSVSSSYLHWYQQKPGQAPRLLIYSTSNRATGIPDRFSGSGSGTDFTLTISRLEPEDFAVYYCQQYDSSPFTFGQGTKLEIKR
As for B1, the binding entry in assay [1] and in assay [2] was “binds” each time.

B2: Antibody A4 (antibody, V domains shown)
VH: QVQLQQPGSELVRPGASVKLSCKASGYTFTIFWIHWVKQRPGQGLEWIGNIYPGSGGTNYDEKFKSKATLTVDTFSSTAYMQLSSLTSEDSAVYYCTRWGTGKDYWGQGTTLKVSS
VL: QIVLTQSPAIMSASPGEKVTMTCRARSSVSSSYLHWYQQKPGSSPKLWIYSTSNLALGVPARFSGSGSGTSYSLTISSVEAEDAATYYCQQYDSSPFTFGTGTKLEIKR
notes: Murine monoclonal IgG with a kappa light chain, from a hybridoma; also called murine A4; A4 monoclonal antibody
Regarding B2, the binding result in assay [1], in assay [3] and in assay [2] was “binds” throughout.

B3: Antibody A3 (antibody, V domains shown)
VH: QVTLKESGPGKLQPSQTLSLTCSFSGFSLSTYGMGVGWIRQPLGKGLEWLANIWWNDDKYYNSALKSRLTISKDTSNNQVFLKISSVDTADAATYYCVQIANPYWYFDVWGAGTTVTVSS
VL: DVLMTQTPLSLPVSLGDQASISCRSSQSIVHSYGNTYLEWYLQKPGQSPKLLIYRVSNRFSGVPDRFSGSGSGTDFTLKISRVEAEDLGVYYCFQGSHVPFTFGTGTKLEIKR
notes: Murine monoclonal IgG from a hybridoma of BALB/c mice immunised with HER3 H584F DNA; also called A3 monoclonal antibody
For the molecule B3, the binding result in assay [3] was “binds”.

The values are drawn from patent publication US20140017259A1 (TAKIS S R L, published 2014).
